Test results taken from PubChem BioAssay AID602313 (National Center for Advancing Translational Sciences (NCATS), 2012).
The whole screen tested about 390,000 compounds, of which about 760 (0.19%) were called active. The shares of active, inactive and inconclusive entries below differ from those in the screen. Calls follow the shape of the dose curve; as a rule, active = well fitted inhibition curve with a large enough effect; inconclusive = small, poorly fitted or top-dose-only effect; inactive = flat fitted curve, though single readings scatter. Where the call is inconclusive, the potency comes from a doubtful curve fit.

test: qHTS for Inhibitors of Vif-A3F Interactions: qHTS; settings: HeLa A3F-eYFP + Vif (tagged APOBEC3F with the HIV-1 protein that degrades it), YFP fluorescence increase; series mostly up to 46.1 µM; activity, negative = active: at the top concentration; also: nearly all actives have a fitted effect of over 65% in size; as to activity, negative = active: % of control where 0% means no effect
Outline: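 HeLa cells stably expressing A3F-eYFP plus Vif, plated and incubated overnight at 37 deg C, then exposed to compounds overnight at 37 deg C. Blocked degradation read as raised yellow fluorescence (Ex 488/Em 500-530).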
Potency is read from the fitted curve at half-maximal effect.

| SMILES | Potency | activity, negative = active |
| --- | --- | --- |
| O=C(Cn1nc(C(=O)O)c2ccccc2c1=O)Nc1ccc(Br)cc1 | inconclusive: 3.16 µM [inhibitor, single point] |  |
| CSc1nc(-c2ccccc2)c(C#N)c(=O)[nH]1 |  | inactive: -9.47% |
| Cc1ccc(C)c(Cn2c(O)c(N=NC(=S)Nc3ccccc3F)c3ccccc32)c1 |  | inactive: -7.5% |
| Cc1cccc(Cn2c(CNS(=O)(=O)c3ccc(C(C)C)cc3)nc3cccnc32)c1 |  | inactive: -1.03% |
| O=C(COc1ccccc1C(=O)O)Nc1nc2ccc([N+](=O)[O-])cc2s1 | inconclusive: 20 µM [inhibitor, single point] |  |
| CC(NC(=O)COC(=O)C12CC3CC(CC(O)(C3)C1)C2)c1ccccc1 (centres undefined) | inconclusive: 5.62 µM [inhibitor, single point] |  |
| CC1C/C(=N\NC(N)=S)c2cc(Cl)ccc2S1 (centres undefined) | inconclusive: 3.98 µM [inhibitor, full curve, poor fit] |  |
| C=CCC(CC(O)COCCC)C(=O)NNC(=S)Nc1ccccc1 (centres undefined) | inconclusive: 3.16 µM [inhibitor, partial curve, poor fit] |  |
| O=C(CSc1nc(-c2ccccc2)cn1-c1ccccc1F)Nc1ccc(F)cc1 |  | inactive: 4.55% |
| COc1ccc(NC(=O)CSc2nc(-c3cc(OC)c(OC)c(OC)c3)[nH]c2-c2ccc(F)cc2)cc1 |  | inactive: 7.57% |
| CC1CCN(c2ccc3c(c2)S(=O)(=O)c2cccc(C(=O)NCc4ccc(F)cc4)c2C3=O)CC1 | inconclusive: 3.16 µM [inhibitor, partial curve, poor fit] |  |
| O=C(Nc1cc(Cl)ccc1N1CCOCC1)c1ccc(=O)[nH]c1 | inconclusive: 6.31 µM [inhibitor, single point] |  |
| COc1ccccc1CNc1nc2ccc(C)cc2n2nnnc12 | active: 12.6 µM |  |
| COc1cc(C(C2C(=O)CC(C)(C)CC2=O)C2C(=O)CC(C)(C)CC2=O)cc(OC)c1OC |  | inactive: 4.98% |
| CCOc1ccc(S(=O)(=O)N2CCN(C(=O)c3cccnc3)CC2)cc1 | inconclusive: 35.5 µM [inhibitor, partial curve, poor fit] |  |
| CC(C)(C)S(=O)(=O)/C(C#N)=N/Nc1ccc(S(N)(=O)=O)cc1 | inconclusive: 35.5 µM [inhibitor, single point] |  |
| C(=N\Nc1nc2ccccc2[nH]1)/c1ccc2c(c1)OCCO2 | inconclusive: 3.55 µM [inhibitor, single point] |  |
| Cc1ccc(N(CC(=O)NC2CCCCC2)C(=O)Cn2nnc(-c3ccc(C)o3)n2)cc1 | inconclusive: 35.5 µM [inhibitor, single point] |  |
| c1ccc(CNc2c(-c3cccc(SC4CCCCC4)c3)nc3ccccn23)cc1 |  | inactive: 0.0715% |

In a second layout: results already given.
SMILES | Potency | activity, negative = active
CC1CCN(c2ccc3c(c2)S(=O)(=O)c2cccc(C(=O)NCc4ccc(F)cc4)c2C3=O)CC1 | inconclusive: 3.16 µM [inhibitor, partial curve, poor fit] | 
O=C(Nc1cc(Cl)ccc1N1CCOCC1)c1ccc(=O)[nH]c1 | inconclusive: 6.31 µM [inhibitor, single point] | 
